## Results of single-concentration screens

Sequences of proteins named here, by UniProt entry; tags and fusion partners are left off. Residues count along the entry.
UniProt P9WFT3, whole entry: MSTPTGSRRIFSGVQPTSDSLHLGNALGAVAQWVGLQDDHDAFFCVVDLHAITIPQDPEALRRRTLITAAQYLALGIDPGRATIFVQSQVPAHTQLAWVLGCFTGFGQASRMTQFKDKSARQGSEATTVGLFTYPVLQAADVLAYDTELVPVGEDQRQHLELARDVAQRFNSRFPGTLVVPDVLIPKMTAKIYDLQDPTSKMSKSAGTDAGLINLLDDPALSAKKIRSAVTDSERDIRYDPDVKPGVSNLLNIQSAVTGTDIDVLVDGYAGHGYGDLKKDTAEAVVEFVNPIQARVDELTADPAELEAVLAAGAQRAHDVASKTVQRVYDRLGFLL
UniProt Q4DA54, 1-478: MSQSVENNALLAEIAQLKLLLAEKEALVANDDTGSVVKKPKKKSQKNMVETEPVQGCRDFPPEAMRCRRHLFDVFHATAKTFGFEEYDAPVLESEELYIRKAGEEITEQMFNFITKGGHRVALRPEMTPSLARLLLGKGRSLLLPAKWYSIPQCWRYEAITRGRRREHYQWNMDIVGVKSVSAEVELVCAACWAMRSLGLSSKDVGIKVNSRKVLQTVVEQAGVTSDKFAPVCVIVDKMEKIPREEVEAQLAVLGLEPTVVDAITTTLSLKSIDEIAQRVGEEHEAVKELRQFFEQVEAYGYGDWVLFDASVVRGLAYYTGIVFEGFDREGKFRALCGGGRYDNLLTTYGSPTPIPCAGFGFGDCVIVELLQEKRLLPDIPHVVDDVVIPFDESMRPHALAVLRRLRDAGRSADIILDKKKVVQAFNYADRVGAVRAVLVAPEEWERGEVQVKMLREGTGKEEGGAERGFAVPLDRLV

Source: ChEMBL document CHEMBL3988442, “University of Dundee, Small-Polar-MMV Screening Library” (2021).

The filed quantity is “Percent Effect” (%). The controls that fix the scale are not given in the record; negative values are as filed. Compounds were drawn at random from those tested, without regard to their results. Two or more numbers in one place are separate tests of the same structure; such repeats can differ widely. A dash means the value is not listed here; it may have been measured.

MtTrpRS: 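Tryptophan-tRNA ligase, Mycobacterium tuberculosis (UniProt P9WFT3). Enzyme assay of tryptophanyl-tRNA synthetase; the read-out is not stated. Compounds at 10 µM. Higher most likely means stronger inhibition; the record gives no direction and few retests gave an IC50. About 65,000 compounds were tested under these conditions; 0.098% (about 64) showed 50% or more at least once.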
Leishmania in macrophages: 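Cell assay of Leishmania donovani living inside macrophages; the read-out is not stated. Compounds at 30 µM. Higher reads as stronger inhibition (inferred: compounds with an IC50 in retests scored well above the rest). Size under these conditions: about 69,000 compounds, about 1,000 of them at 50% or above in at least one test.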
TcHisRS: 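Enzyme assay of histidyl-tRNA synthetase; the read-out is not stated. Target: Histidine-tRNA ligase, Trypanosoma cruzi CL Brener (UniProt Q4DA54). Compounds at 30 µM. Higher reads as stronger inhibition (inferred: compounds with an IC50 in retests scored well above the rest). Size under these conditions: about 69,000 compounds, about 31 of them at 50% or above in at least one test.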

| # | compound | MtTrpRS | Leishmania in macrophages | TcHisRS |
|---|---|---|---|---|
| 1 | `Cc1cc(CC(C)NC2CCN(CC(C)C)CC2)[nH]n1` (configuration not stated) | 4.67 | 19.46 | 0.8 |
| 2 | `c1ncn(CC2CCCCN2Cc2csc(C3CCCC3)n2)n1` (configuration not stated) | 1.519 | 11.77 | 2.29 |
| 3 | `COc1ccc(-c2noc(CN3CCN(c4cnccn4)CC3)n2)cc1` | 1.633 | 5.516 | 7.212 |
| 4 | `COc1ccc(CN(C)c2nc3c(cnn3C)c(=O)[nH]2)c(OC)c1` | 3.631 | 42.35 | -5.172 |
| 5 | `CC(O)CNc1nc(-c2cccnc2)nc2c1CCC2` (configuration not stated) | -0.6717 | 13.01 | 7.143 |
| 6 | `CCCc1nc(C(=O)NCc2cccnc2-n2cncn2)cs1` | 0.08496 | -16.83 | 2.174 |
| 7 | `CC(C(=O)NCc1ccnc(Oc2ccc(F)cc2)c1)n1cncn1` (configuration not stated) | -1.006 | 17.2 | 3.333 |
| 8 | `CC(Cc1ccco1)NS(=O)(=O)N1CCCCCC1` (configuration not stated) | -1.188 | 3.467 | 0.4926 |
| 9 | `Cc1ccc(CNC(=O)N2CCN(C(C)c3cccnc3)CC2)cn1` (configuration not stated) | -1.933 | 23.69 | 7.027 |
| 10 | `COCC1Cn2nnc(-c3cnn(C)c3)c2CN1Cc1cccs1.O=C(O)C(F)(F)F` (configuration not stated) | - | 20.12 | - |
| 11 | `c1cc(C2CCN(c3ncnc4c3CCNCC4)CC2)ccn1` | -0.3291 | 3.191 | 4.103 |
| 12 | `CCC(NC(=O)C1CCN(S(=O)(=O)N(C)C)CC1)c1ccc(C)c(C)c1` (configuration not stated) | -3.065 | 8.006 | 1.674 |
| 13 | `CN(C(=O)Cn1nc(-c2ccc(F)cc2)ccc1=O)C1CCS(=O)(=O)C1` (configuration not stated) | -2.648 | 13.07 | -2.174 |
| 14 | `Cc1ccccc1C(=O)NCc1ccnc(N(C)C)c1` | 9.994 | -27.19 | 5.187 |
| 15 | `COCCOCC(=O)Nc1cc(C)ccc1F` | -1.467 | 6.274 | 8.543 |
| 16 | `Cc1nnc2n1CCN(Cc1csc(-c3ncccn3)n1)C2` | 59.03 | -21.97 | -2.907 |
| 17 | `CCC(C)NS(=O)(=O)c1ccc(C(=O)N(C)C2(C#N)CCC2)cc1` (configuration not stated) | 0.8909 | 14.81 | 9.135 |
| 18 | `Cc1nc(C)n(C2CCCN(C(=O)c3ccn(C(C)C)n3)C2)n1` (configuration not stated) | -6.921 | 22.75 | -0.2907 |
| 19 | `O=C(O)C(F)(F)F.[H][C@@]12COC[C@]1(COCc1cccnc1)CN(C(=O)c1ccccc1F)C2` | - | -40.94 & 7.381 | - |
| 20 | `[H][C@@]12CS(=O)(=O)C[C@]1([H])N(Cc1nc3c(s1)CCCC3)CCN2CCOC` | - | 0.1181 | - |
| 21 | `CC(C(=O)N1CCN(c2ccccc2Cl)CC1)n1cncn1` (configuration not stated) | 0.6823 | 7.957 | 1.128 |
| 22 | `O=C(O)C(F)(F)F.[H][C@]12CN(CCN(C)C)C(=O)[C@@]1([H])CN(S(=O)(=O)c1ccccc1)C2` | - | 44.38 | - |
| 23 | `CC(C)Oc1cccc(F)c1C(C(=O)O)N1CCCC1` (configuration not stated) | 2.922 | 13 | -1.739 |
| 24 | `O=C([C@@H]1CCO[C@@H]2CCN(Cc3ccsc3)C[C@@H]21)N1CCCC1` | -1.407 | - | 10.78 |
| 25 | `CC(C)N1CCCC(CNC(=O)Cc2csc(-c3cccnc3)n2)C1` (configuration not stated) | -5.925 | 19.05 | 1.676 |
| 26 | `Cc1ncsc1CCC(=O)NCc1cc2n(n1)CCNC2` | 2.651 | -9.17 | 3.96 |
| 27 | `Cc1ccc(N2CCCN(C(=O)c3cc(Cl)c[nH]3)CC2)nn1` | 0.7401 | 3.126 | 14.05 |
| 28 | `COc1cccc(-c2n[nH]c3c2CN(C(=O)C2=C(C)OCCO2)CC3)c1` | 1.125 | -1.063 | -1.064 |
| 29 | `Cc1cc(C)n(CC2CCCN2Cc2c(C)noc2C)n1` (configuration not stated) | 2.269 | 15.03 | 0.7519 |
| 30 | `CCC1CN(C)c2ccccc2CN1C(=O)c1c[nH]c(=O)cc1C` (configuration not stated) | -3.524 | -0.752 | 6 |
| 31 | `Cc1c(-c2nc(-c3cccc(CN4CCOCC4)c3)no2)cnn1C` | -2.385 | 13.84 | 0 |
| 32 | `O=C(NCCNc1cnccn1)N1CCCC(N2CCCC2)C1` (configuration not stated) | -2.603 | 7.481 | 5.444 |
| 33 | `CC(Nc1cccc(CN2CCOC2=O)c1)C(=O)NC(N)=O` (configuration not stated) | 5.271 | 7.679 | -0.7634 |
| 34 | `COCC1CC2(CCN(c3cc(OC)ncn3)CC2)CN1C(C)C` (configuration not stated) | - | - | 4.523 |
| 35 | `CCOc1cc(CNCc2cnc(C)cn2)c(Cl)cc1OC(C)C` | -0.3303 | 29.28 | 7.692 |
| 36 | `[H][C@@]12CCN(Cc3cccs3)C[C@@]1([H])O[C@@H](c1ccncn1)C2` | - | 7.407 | - |
| 37 | `O=C(NCCN1CCC(c2cccs2)CC1)c1ccccc1C(F)(F)F` | -0.2138 | 22.27 | 4.959 |
| 38 | `c1cc(-c2c[nH]c([C@@H]3COCCN3C3CCCCC3)n2)ccn1` | -2.049 | 19.05 | 1.087 |
| 39 | `CC1CCN(C(=O)C2(Cc3cc(C4CCOC4)no3)CCNCC2)CC1.Cl` (configuration not stated) | - | -1.405 | - |
| 40 | `CC(C)[C@H](NC(=O)NC1CCS(=O)(=O)C1)C(=O)NCc1ccccc1Cl` (some centres not stated) | -5.427 | -27.82 | 3.825 |
| 41 | `CCCc1nc(C)c(C(=O)NC2CCN(CC(N)=O)CC2)s1` | -3.636 | -1.606 | 10.97 |
| 42 | `COc1ccc2c(c1)OCC(CNC(=O)c1ccc3[nH]nnc3c1)C2` (configuration not stated) | 0.8653 | -48.82 | 1.212 |
| 43 | `CCOC1CC2(CCN(C(=O)Cc3ccccn3)CC2)C1.O=C(O)C(F)(F)F` | - | -18.18 | - |
| 44 | `CCC(C(=O)N(C)Cc1cc(C2CC2)[nH]n1)n1cccn1` (configuration not stated) | -0.9412 | 12.41 | 7.182 |
| 45 | `C=Cn1ncc(CN2C[C@@H]3CCCN3C[C@H]2Cc2ccccc2)c1C` | - | - | 3.333 |
| 46 | `COCC1CN(Cc2ccccn2)Cc2nn(C)cc21` (configuration not stated) | 0.2292 | 30.85 | 7.563 |
| 47 | `CCS(=O)(=O)N1CCOC2(CCCN(c3ncc(F)cn3)C2)C1` (configuration not stated) | -0.183 | 13.46 | 11.49 |
| 48 | `Cc1nn(C)c(C)c1C(=O)NCc1cc(N(C)C)nc2ccccc12` | -4.796 | 50.16 | 5.752 |
| 49 | `CCc1nc(CN2CCCN(C(=O)c3ccnc(C)n3)CC2)cs1` | 2.709 | 14.11 | 5.539 |
| 50 | `Cn1ccnc1NC[C@@H]1CCC[C@@H]2CN(Cc3cccnc3)C[C@@H]21` | 7.803 | - | 5 |
| 51 | `O=C(C1CCOCC1)N1C[C@@H]2[C@@H](C1)OCC(=O)N2CC1CC1` | 0.4359 | - | -250.3 |
| 52 | `COCc1noc(Cn2ccc3ncccc3c2=O)n1` | -1.417 | 26.89 | 0 |
| 53 | `CC(C)(CNCc1ccc(OCc2cscn2)cc1)C(N)=O` | -3.818 | - | 5.806 |
| 54 | `O=C(NCCn1ccc(-c2ccncc2)n1)C1CC1` | 0.5882 | 11.81 & -23.72 | 0 |
| 55 | `O=C(NCc1ccc(Br)cc1)NCC1CCOC1` (configuration not stated) | 1.709 | 15.43 | -5.042 |
| 56 | `COc1c(F)cc(-c2cn(CCn3c(C)cc(C)nc3=O)nn2)cc1Cl` | -1.871 | -23.1 | 12.61 |
| 57 | `O=C(O)C(F)(F)F.[H][C@@]12OCCN(S(=O)(=O)CCC)[C@@]1([H])CC[C@H]2OCc1ccccn1` | - | 9.25 | - |
| 58 | `N#CCCN(Cc1ccccn1)Cn1cc(Cl)cn1` | 6.373 | 15.89 | 1.327 |
| 59 | `Cc1nn(C)c(C)c1CC(C)NC(=O)NCc1ccoc1C` (configuration not stated) | -3.685 | 13.32 | 3.448 |
| 60 | `Cc1oc(C)c(C(=O)NCc2cccnc2N(C)C)c1C` | -1.415 | 2.797 | 1.141 |
| 61 | `Cc1nc(C)c(C)c(N2CCC(NCCOc3ccccc3)CC2)n1` | -2.129 | 58.55 | 10.5 |
| 62 | `CC(C)(C)OC(=O)N1CSC[C@@H]1C(=O)NCc1ccsc1` | 0.9723 | 0.2376 | 3.665 |
| 63 | `CO[C@@H]1CO[C@@]2(CCCN(S(=O)(=O)c3ccccc3)C2)C1` | -0.07639 | 25.83 | 10.92 |
| 64 | `CCCC(=O)N1C[C@@H]2CCN(c3cnccn3)C[C@@H]2C1` | 3.483 | - | 4.327 |
| 65 | `Cc1occc1C(=O)NC1CCN(C(=O)Nc2cccnc2)CC1` | -2.785 | 4.773 | 4.202 |
| 66 | `CS(=O)(=O)N[C@@H]1CCN(Cc2cccnc2)[C@H]1Cc1cccnc1` | 11.6 | -12.32 | 0.9852 |
| 67 | `COc1ccc(CN(C)C(=O)NCc2c(C)cc(C)nc2OC)cc1` | -2.887 | 12.18 | 0.578 |
| 68 | `O=C1OC2(CCNCC2)CN1CC(=O)N1CCCC1c1nccs1` (configuration not stated) | -2.375 | -2.788 | -3.488 |
| 69 | `CN(Cc1cccc(C(=O)Nc2ccnn2C)c1)CC1(C)COC1` | 3.428 | -6.014 | 3.279 |
| 70 | `Cc1ccc(NC2COC3(CCN(CC(C)C)CC3)C2)nn1` (configuration not stated) | 7.655 | - | 2.454 |
| 71 | `CC(C)(O)CN1CCN(C(=O)COC2CCCCC2)CC1` | -5.128 | 33.56 | 8.642 |
| 72 | `COCCN(CC(C)C)c1cc(C)ncn1` | 7.31 | -24.34 | -14.14 |
| 73 | `O=C(C1=CCCC1)N1CCC2(CC1)CC(Oc1cccnc1)CO2.O=C(O)C(F)(F)F` (configuration not stated) | - | 15.41 | - |

Once more, the final 4:

compound,MtTrpRS,Leishmania in macrophages,TcHisRS
Cc1ccc(NC2COC3(CCN(CC(C)C)CC3)C2)nn1 (configuration not stated),7.655,-,2.454
CC(C)(O)CN1CCN(C(=O)COC2CCCCC2)CC1,-5.128,33.56,8.642
COCCN(CC(C)C)c1cc(C)ncn1,7.31,-24.34,-14.14
O=C(C1=CCCC1)N1CCC2(CC1)CC(Oc1cccnc1)CO2.O=C(O)C(F)(F)F (configuration not stated),-,15.41,-